Here are results for 1 substance from publication PMC6073118.

Results are given in words; binding and its absence hold for the method and conditions named. In cells and extracts the contact can be indirect. Binding can be weak; no strength is given.

The assay addresses T1, Tic55 (A. thaliana (endogenous in isolated chloroplasts)) (UniProt Q9SK50).
T1 sequence: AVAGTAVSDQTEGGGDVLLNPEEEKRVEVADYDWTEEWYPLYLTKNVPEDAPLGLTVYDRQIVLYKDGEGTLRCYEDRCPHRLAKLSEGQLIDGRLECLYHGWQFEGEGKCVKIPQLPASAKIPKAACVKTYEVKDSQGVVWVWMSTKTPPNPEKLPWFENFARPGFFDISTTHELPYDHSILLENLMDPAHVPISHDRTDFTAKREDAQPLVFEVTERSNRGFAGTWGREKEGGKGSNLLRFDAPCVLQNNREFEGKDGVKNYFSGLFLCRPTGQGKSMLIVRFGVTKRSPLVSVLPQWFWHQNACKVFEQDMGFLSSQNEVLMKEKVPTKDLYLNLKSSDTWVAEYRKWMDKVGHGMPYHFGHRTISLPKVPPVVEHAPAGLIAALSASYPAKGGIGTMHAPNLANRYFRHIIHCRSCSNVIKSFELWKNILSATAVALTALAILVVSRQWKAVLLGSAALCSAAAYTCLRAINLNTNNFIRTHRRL
The assay is described as follows: co-IP; isolated chloroplasts of wild-type A. thaliana treated with 0.5 mM DSP (quenched with 50 mM glycine) and hypotonic buffer; membrane pellet solubilised in 25 mM HEPES-KOH pH 8.0, 50 mM KCl, 4% Tx-100, 20% glycerol; IP with anti-Tic55 antibody or preimmune serum and protein A, 4 °C; blots with anti-Tic110, anti-Hsp93, anti-Tic40.

Turning to Hsp93, the binding entry is “binds”.
